PubChem BioAssay AID652259 | Drosophila RNAi Screening Center, 2013

Screen: 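Knock-downs that push a Wingless-driven reporter up or down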 (primary screen)
Cell system: Drosophila clone 8 imaginal disc epithelial cells
Knock-down reagent: long dsRNA against Drosophila genes
Challenge: pathway stimulated by co-transfected Wingless expression plasmid
Detection: 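Firefly luciferase from a tcf-site Wingless reporter, measured alongside co-transfected Renilla luciferase that tracks transfection; pathway stimulated by a Wingless plasmid; the firefly-to-Renilla ratio is not deposited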
Reading the numbers: firefly reporter light: higher = more Wg reporter light, before normalisation; Renilla control light: higher = more transfected or surviving cells
Call rule: 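a knock-down is a candidate when at least two out of four statistical tests show it departing from its plate mean; one test alone signals a weak candidate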
Meaning of the calls: active = candidate regulator (raises or lowers reporter); inactive = not a candidate
In all, the deposit lists about 22,000 reagents; below is an unselected part of those with a known target gene and a result. Of all reagents, 233 (1.1%) were called active. 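Light values are raw, unnormalised plate reads; the ratio scores behind the reporter calls were not deposited.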 Entries without a mark were called inactive. A plus sign joins genes that one reagent is predicted to hit. Not given: the amount of reagent, the time to read-out, the dose of the treatment.

target | amplicon | reporter change call, replicate 1 | firefly reporter light, replicate 1 | firefly reporter light, replicate 2 | Renilla control light, replicate 1 | Renilla control light, replicate 2
Topors | DRSC06531 | – | 11432 | – | 3984 | –
RpL34b | DRSC16475 | – | 18432 | – | 5734 | –
Rh50 | DRSC08692 | – | 5465 | – | 2121 | –
ng4 | DRSC18805 | – | 21921 | – | 16404 | –
CG30325 | DRSC05685 | – | 22219 | – | 16757 | –
CG13795 | DRSC02299 | – | 3328 | 9099 | 1015 | 3603
ldd | DRSC20558 | – | 14696 | – | 1258 | –
ldd | DRSC22696 | – | 6.26e5 | 7.06e5 | 3.62e5 | 3.12e5
CG3829 | DRSC04423 | – | 14500 | – | 5274 | –
PK1-R | DRSC16577 | – | 17222 | – | 3522 | –
Kap3 | DRSC19426 | – | 4769 | 10864 | 1632 | 3680
Qsox2 | DRSC15287 | – | 3242 | 4502 | 1080 | 1939
CG8159 | DRSC16392 | – | 16587 | – | 4357 | –
CG7059 | DRSC16187 | – | 35656 | – | 6626 | –
CG15124 | DRSC06546 | – | 5412 | – | 1937 | –
CG6739 | DRSC02987 | – | 2848 | 6133 | 455 | 2448
su(Hw) | DRSC17074 | – | 4768 | – | 1879 | –
GABA-B-R1 | DRSC22038 | – | 3.67e5 | 3.67e5 | 1.91e5 | 1.84e5
Osi4 | DRSC12134 | – | 15184 | – | 3205 | –
CR10032 | DRSC12499 | – | 12823 | – | 4029 | –
CG41520 | DRSC21103 | – | 15847 | – | 8772 | –
CG15739 | DRSC19705 | – | 19245 | – | 10916 | –
CG6028 | DRSC15951 | – | 4489 | 9284 | 961 | 1656
wake | DRSC16148 | – | 10004 | – | 11738 | –
wake | DRSC16149 | – | 10229 | – | 11707 | –
CG4502 | DRSC02755 | Wg reporter activity lowered | 4736 | – | 3509 | –
Opa1 | DRSC07191 | – | 13616 | – | 2289 | –
snRNP-U1-C | DRSC15804 | – | 23829 | – | 3483 | –
CG13185 | DRSC06310 | – | 6848 | – | 2372 | –
asRNA:CR43470 + CG14830 | DRSC10200 | – | 1284 | 6295 | 939 | 2904
Arms | DRSC03856 | – | 4024 | 25616 | 1616 | 13210
Arms | DRSC03857 | – | 16328 | – | 8131 | –
Arms | DRSC04052 | – | 11200 | – | 2708 | –
Arms | DRSC04256 | – | 1731 | 3296 | 674 | 1817
CG43996 + CG43997 | DRSC19456 | – | 13488 | – | 8474 | –
CG43996 + CG43997 | DRSC19457 | – | 20712 | – | 7709 | –
ATPsynO | DRSC16780 | – | 6832 | – | 3178 | –
dcma | DRSC00246 | – | 21085 | – | 8442 | –
dcma | DRSC00338 | – | 4192 | 7507 | 1213 | 3393
Rrp5 | DRSC15862 | – | 2230 | 4041 | 1096 | 1769
CG17264 | DRSC00500 | – | 8292 | – | 3635 | –
l(3)07882 | DRSC15882 | – | 3104 | 6919 | 1302 | 2512
CG7248 | DRSC10788 | – | 8024 | – | 3728 | –
CG31882 | DRSC01084 | – | 22688 | – | 10571 | –
CG15631 | DRSC00466 | – | 1629 | 5574 | 868 | 2517
GlyT | DRSC04512 | – | 2038 | 4747 | 659 | 1729
UGP | DRSC10411 | – | 8000 | – | 3091 | –
CG17717 | DRSC18130 | – | 12512 | – | 7138 | –
Chd64 | DRSC08649 | – | 6144 | – | 2352 | –
osk | DRSC17023 | – | 5060 | – | 1681 | –
klg | DRSC13591 | – | 2812 | – | 1606 | –
klg | DRSC16978 | – | 28352 | – | 18539 | –
CG12078 | DRSC08242 | – | 5251 | – | 1993 | –
CG1468 | DRSC17946 | – | 1643 | 3956 | 916 | 1738
asp | DRSC16903 | – | 3344 | 6214 | 1227 | 1819
CG7115 | DRSC02000 | – | 2505 | 6442 | 1009 | 3394
PPO2 | DRSC07102 | – | 7543 | – | 2167 | –
uif | DRSC00963 | – | 22712 | – | 8492 | –
uif | DRSC03427 | – | 3068 | 8073 | 1196 | 3136
Ptp52F | DRSC06717 | – | 5792 | – | 2309 | –
CG6154 | DRSC15977 | – | 20556 | – | 26177 | –
Gcat | DRSC09719 | – | 8938 | – | 3362 | –
side | DRSC14523 | – | 10285 | 7.18e5 | 4115 | 3.22e5
side | DRSC14716 | – | 9559 | – | 3467 | –
side | DRSC14717 | – | 7293 | – | 3339 | –
side | DRSC14718 | – | 6832 | – | 3287 | –
side | DRSC14721 | – | 12848 | – | 4208 | –
CR31700 | DRSC03682 | – | 17204 | – | 9753 | –
dsx-c73A | DRSC09435 | – | 4128 | – | 1329 | –
dsx-c73A | DRSC09914 | – | 7924 | – | 2640 | –
dsx-c73A | DRSC10429 | – | 9354 | – | 3284 | –
Cdc14 | DRSC03013 | – | 2944 | 8401 | 848 | 3412
Drep4 | DRSC03408 | – | 2260 | 6677 | 1491 | 3808

An excerpt from above, limited to “Renilla control light, replicate 1”:
Arms [DRSC03856]	1616
Arms [DRSC03857]	8131
Arms [DRSC04052]	2708
Arms [DRSC04256]	674
CG43996 + CG43997 [DRSC19456]	8474
CG43996 + CG43997 [DRSC19457]	7709
ATPsynO [DRSC16780]	3178
dcma [DRSC00246]	8442
dcma [DRSC00338]	1213
Rrp5 [DRSC15862]	1096
CG17264 [DRSC00500]	3635
